From patent publication US20170121773A1
No constants are given. Whether binding was seen depends on the method and setting. Binding seen in cells or lysates may run through a third protein. Some entries that bind do so weakly or less than the wild type.

Amino acid sequences for entries named in this document (tags omitted). Residues count along the entry.
UniProt Q61362, residues 30-389: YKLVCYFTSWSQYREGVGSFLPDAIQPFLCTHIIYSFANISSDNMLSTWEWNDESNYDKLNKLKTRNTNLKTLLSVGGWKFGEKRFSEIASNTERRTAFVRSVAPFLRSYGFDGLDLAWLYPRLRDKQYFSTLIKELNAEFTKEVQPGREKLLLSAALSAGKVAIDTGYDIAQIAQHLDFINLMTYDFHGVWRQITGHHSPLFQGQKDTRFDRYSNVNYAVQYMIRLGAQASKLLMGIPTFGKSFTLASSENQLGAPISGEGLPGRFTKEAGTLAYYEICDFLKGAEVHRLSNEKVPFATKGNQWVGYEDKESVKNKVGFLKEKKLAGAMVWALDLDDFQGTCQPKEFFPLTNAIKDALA

Assays:
[1] = target: T1, CRTH2 (chemoattractant homologous receptor expressed on Th2 cells), endogenous mouse protein (mouse) (UniProt Q9Z2J6); assay: co-immunoprecipitation (summary in the discussion of Example 1)
T1 sequence (looked up): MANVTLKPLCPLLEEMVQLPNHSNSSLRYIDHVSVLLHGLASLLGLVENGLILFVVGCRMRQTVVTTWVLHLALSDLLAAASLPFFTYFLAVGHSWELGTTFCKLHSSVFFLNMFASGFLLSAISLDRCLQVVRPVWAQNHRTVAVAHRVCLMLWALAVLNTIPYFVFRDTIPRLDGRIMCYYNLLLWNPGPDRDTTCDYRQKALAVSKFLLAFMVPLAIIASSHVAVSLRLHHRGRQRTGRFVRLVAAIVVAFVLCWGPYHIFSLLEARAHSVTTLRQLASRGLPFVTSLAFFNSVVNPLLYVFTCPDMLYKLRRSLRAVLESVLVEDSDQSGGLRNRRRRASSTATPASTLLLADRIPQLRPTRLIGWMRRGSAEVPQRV

[2] = target: T1, CRTH2 (chemoattractant homologous receptor expressed on Th2 cells), endogenous mouse protein (mouse); assay: co-immunoprecipitation from mouse lung lysates (FIG. 6A legend)
[3] = target: T1, CRTH2 (chemoattractant homologous receptor expressed on Th2 cells), endogenous mouse protein (mouse); assay: co-immunoprecipitation from mouse lung lysates (WT and IL-13 Tg), Western immunoblot

Measured: binding

CHI3L1 (chitinase 3-like-1), endogenous mouse protein in lung lysate (from UniProt Q61362 30-389) (ligand)
binds: all assays above
